# Experimental data taken from PubChem BioAssay AID463116 (University of Pittsburgh Molecular Library Screening Center, 2010).
# The other results are listed elsewhere or left out. These are further read-outs of the screen, such as a control signal, another cell line or another target. No call is given for them. The list favours compounds with an active or inconclusive main result.
# Assay: blockers of dexamethasone-driven GR-EGFP nuclear import – imaging, high-content imaging, GR-EGFP cells, confirmation (AID 463116)
# Conditions: 3617.4 GR-EGFP nuclear translocation imaging, dexamethasone-induced; measured here: cell count per field; at 20 µM
row,SMILES,z-score
1,O=C(/C=C/c1cc(Br)ccc1O)c1ccco1,-0.774
2,CC(C)N(CC(=O)Nc1ccc(Cl)cc1C(F)(F)F)C(=O)CCl,-0.0726
3,CNC(=O)COC(=O)c1ccccc1C(=O)c1ccc(Cl)c([N+](=O)[O-])c1,-0.784
4,O=S(=O)(CCSc1nc2ccccc2o1)c1nc2ccccc2s1,-0.0152
5,O=[N+]([O-])c1ccc(N2CCN(c3ccc(Cl)nn3)CC2)cc1NC1CC1,0.512
6,CN(C)CC(C(=O)c1ccccc1)c1ccccc1 (stereo not given),-0.446
7,COC(=O)c1cc(=O)n(Cc2cccs2)c(=Nc2ccccc2)s1,0.42
8,COc1ccc(-c2cc(C(F)(F)F)nc(S(=O)(=O)CCCC(=O)Nc3cccc(O)c3)n2)cc1OC,0.333
9,Cc1ccc(/C=C2/C(=O)ON=C2c2ccccc2)o1,0.253
10,Nc1c(C(=O)c2ccc(Cl)cc2)sc2nsc(SCCN3CCOCC3)c12,-0.365
11,O=C1C=CC(O)(c2cc(=O)c3c(O)cc(O)cc3o2)C=C1,0.000739
12,COc1ccc(C(C(=O)NC2CCCCC2)N(C(=O)CCl)c2cccc(Cl)c2)cc1 (stereo not given),0.651
13,N#Cc1cccc(NC(=O)CSc2ccc3c4c(cccc24)C(=O)c2ccccc2-3)c1,0.279
14,CCOC(=O)c1c(-c2ccccc2)csc1NC(=O)/C(C#N)=C/c1ccc(O)c(OC)c1,-0.508
15,O=[N+]([O-])c1ccc(-c2ccc(/C=N/Nc3nc(N4CCCCC4)nc(N4CCCCC4)n3)o2)cc1,0.11
16,COc1cc(OC)c2c(O)c3c(c(-c4c5c(c(O)c6c(OC)cc(OC)cc46)CO[C@@H](C)[C@H]5O)c2c1)[C@H](O)[C@H](C)OC3,0.48
17,N#C/C(=C\c1cccc([N+](=O)[O-])c1)C(=O)NCc1ccc(Cl)cc1,0.893
18,O=C(NCc1cccnc1)/C(=C\c1ccc(-c2cccc(Cl)c2)o1)S(=O)(=O)c1ccccc1,0.247
19,CC(=O)N1/C(=C/c2ccc(N(C)C)cc2)C(=O)c2ccccc21,-0.792
20,CC(=O)Nc1sc(/C(C#N)=C/c2ccc(Cl)c(Cl)c2)nc1-c1ccc(C)cc1,-0.136
21,C=C1C(=O)[C@@]23[C@H](O)C[C@@H]4C(C)(C)CC[C@H](O)[C@]4(C)[C@@H]2C[C@H](O)[C@@H]1[C@H]3O,0.508
22,COc1ccc(N2C(=O)CC(Sc3nnnn3-c3ccc(F)cc3)C2=O)cc1 (stereo not given),-0.023
23,Cc1nnc(NC(=O)c2sc3nc(-c4cccs4)cc(C(F)(F)F)c3c2N)s1,0.228
24,O=C(CCN1Cc2ccccc2C1)c1ccc2c(c1)OCCO2,0.0743
25,O=C(CCl)Nc1cccc(Oc2ccccc2)c1,0.223

row,SMILES,z-score
1,N#Cc1cc(-c2ccccc2)nc(Oc2ccc(Cl)cc2)n1,0.0125
2,O=[N+]([O-])c1cc(S(=O)(=O)N2CCCCCC2)ccc1F,-0.161
3,Cc1ccc(C(C)C)c(OCC(=O)NN=C(CCl)CCl)c1,-0.363
4,Nc1ccc(O)cc1C(=O)OCC(=O)c1ccc(C2CCCCC2)cc1,0.719
5,COc1ccc(CCn2c(C)cc(C(=O)CCl)c2C)cc1OC,0.133
6,CCOC(=O)CC1C(=O)NCCN1c1nc2ccc(C)cn2c(=O)c1/C=C1\SC(=S)N(CC(C)C)C1=O (stereo not given),0.287
7,N#C/C(=C/c1ccc(N2CCCCC2)o1)C(=O)Nc1ccc(Cl)cc1,0.33
8,O=C(Nc1ccccc1)C1=C(O)CC(c2ccoc2)CC1=Nc1ccccc1 (stereo not given),0.661
9,N#CC1(C#N)C(c2ccccc2)OC23CCCCC2C1(C#N)C(=N)O3 (stereo not given),-0.311
10,Cc1onc(-c2c(Cl)cccc2Cl)c1-c1nc2cc(Cl)ccc2c(=O)o1,-0.892
11,CC1CCN(CCCNC(=O)c2ccc3c(Cl)c4c(nc3c2)CCCC4)CC1,0.829
12,COc1ccc(C(=O)/C=C/C(=O)N(CC(=O)NC2CCCCC2)Cc2ccccc2OC)c(O)c1,-0.682
13,O=[N+]([O-])c1ccc(N/N=C/c2c[nH]c3ccccc23)cc1,-0.086
14,CCN(CC)S(=O)(=O)c1cc(NC(=O)Cn2ncc(Cl)c(Cl)c2=O)ccc1C,0.436
15,Cc1ccc(S(=O)(=O)N[C@@H](Cc2ccccc2)C(=O)CCl)cc1,-2.38
16,O=C(/C=C/NNC(=O)c1ccc(Cl)cc1)c1ccccc1,0.4
17,COc1ccc(NC(=O)/C(Cl)=C(/Cl)S(=O)Cc2ccccc2)cn1 (stereo not given),0.425
18,N#Cc1c(C(F)(F)F)cc(-c2ccccc2)nc1SCc1nc(N)nc(N2CCOCC2)n1,0.265
19,CCOC(=O)C(NC(=O)c1cccc(Cl)c1)(Nc1sc2c(c1C(N)=O)CCC2)C(F)(F)F (stereo not given),0.0765
20,COc1ccc(C(=O)/C=C/C(=O)N(CC(=O)NC2CCCCC2)Cc2ccccc2)c(O)c1,-1.02
21,CCCCc1c(C)c(C#N)c2nc3ccccc3n2c1Cl,0.529
22,CCOC(=O)CSC1=NC(=O)/C(=C\c2ccc(Cl)cc2)S1,0.43
23,COc1ccc(C(=O)/C=C/C(=O)N(CC(=O)NC2CCCCC2)CC2CCCO2)c(O)c1 (stereo not given),-0.0941
24,Cc1cc(C(=O)CCl)c(C)n1-c1cccc(S(=O)(=O)N2CCOCC2)c1,-0.642
25,CCC1=C2CC[C@H]3C(=O)N(c4ccccc4)C(=O)[C@H]3[C@H]2[C@@]2(C)C(=NCc3ccccc3)OC(=O)N2C1=O,0.202

# Some of these compounds in order of number of heavy atoms, falling.
row,SMILES,z-score
12,COc1ccc(C(=O)/C=C/C(=O)N(CC(=O)NC2CCCCC2)Cc2ccccc2OC)c(O)c1,-0.682
20,COc1ccc(C(=O)/C=C/C(=O)N(CC(=O)NC2CCCCC2)Cc2ccccc2)c(O)c1,-1.02
19,CC(=O)N1/C(=C/c2ccc(N(C)C)cc2)C(=O)c2ccccc21,-0.792
